Results on 1 substance are retold here after publication PMC11437456.

The assay concerns the target EGFP-eEF1A1 (eukaryotic elongation factor 1 alpha 1) (UniProt P68104). The assay can be described thus: co-IP.

These are yes or no findings as the source states them, for the method shown. In cells and extracts the contact can be indirect. Some results given as binding are weak or reduced against the parent protein; the word gives no strength.

Take p62/SQSTM1 (from UniProt Q13501 1-440): the binding result is “binds”.
